# Laboratory results published in PubChem BioAssay.
# The entries are a selection whose mix differs from that of the whole data set.
# Assays:
# [1] = NFkB reporter suppression in cystic fibrosis bronchial cells – cell-based, uHTS hits, panel, cytotoxicity readout, dose response (AID 624344); details: CF bronchial epithelial cells, PAF-induced NFkB reporter inhibition, with PAF, run 1; at 79 µM (top of the series)
# [2] = as above; details: CF bronchial epithelial cells, PAF-induced NFkB reporter inhibition, with PAF, run 2; at 79 µM (top of the series)
structure (smiles),measurement,setting,value
COc1c(O)cc2c(c1OC)-c1ccc(OC)c(=O)cc1C(NC(C)=O)CC2 (configuration not stated),inhibition,[1],-1.95%
same,inhibition,[2],14.2%
